Counter-ions that a name gives are not always drawn. The list shows a part of the results. Single values are uncertain here, since repeats match poorly.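 ReNCell VM, a human fetal ventral-midbrain neural progenitor line, was differentiated without mitogens. Blinded raters scored images stained for doublecortin (early neurons) or tyrosine hydroxylase (dopaminergic neurons) against untreated wells (0 = no change). Scores were averaged across repeats and both raters, and compounds averaging 2 or more were selected as hits for retesting.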

The first experiment deals with ReNCell VM. The experiment is described as follows: dopaminergic neuron differentiation score (TH+ cell fraction vs untreated, manual image score) (score (0 to 3)); higher = more TH+ dopaminergic neuron differentiation. Particulars: library: Prestwick; 2 uM; 4 weeks; BDNF 10 ng/ml + GDNF 10 ng/ml.
For the compound `CC1(C)S[C@@H]2[C@H](NC(=O)[C@H](N)c3ccc(O)cc3)C(=O)N2[C@H]1C(=O)O` [Amoxicillin], the “dopaminergic neuron differentiation score” value was inactive: 0.

As to `N[C@@H](C(=O)N[C@@H]1C(=O)N2C(C(=O)O)=C(Cl)CS[C@H]12)c1ccccc1` [Cefaclor hydrate], the “dopaminergic neuron differentiation score” value is inactive: 0.

As for `CCn1cc(C(=O)O)c(=O)c2cc(F)c(N3CCNCC3)nc21` [Enoxacin], the “dopaminergic neuron differentiation score” value was inactive: 0.

As for `COc1c2occc2c(OC)c2c(=O)cc(C)oc12` [Khellin], the “dopaminergic neuron differentiation score” value is inactive: 0.

For the compound `Nc1nc(=O)c2nc(CNc3ccc(C(=O)N[C@@H](CCC(=O)O)C(=O)O)cc3)cnc2[nH]1` [Folic acid], the “dopaminergic neuron differentiation score” value is inactive: 0.

As for `N#Cc1ccc(C(c2ccc(C#N)cc2)n2cncn2)cc1` [Letrozole], the “dopaminergic neuron differentiation score” value was inactive: 0.

Staying with this experiment, now noted: library: Spectrum; 2 uM; 4 weeks; BDNF 10 ng/ml + GDNF 10 ng/ml.
With `Cc1noc(NS(=O)(=O)c2ccc(N)cc2)c1C`, the “dopaminergic neuron differentiation score” value was inactive: 0.

As for `COc1cc2nc(N3CCN(C(=O)C4CCCO4)CC3)nc(N)c2cc1OC` (stereo not drawn), the “dopaminergic neuron differentiation score” value was inactive: 0.

As for `COc1cc2c(cc1OC)C1C(=O)c3c(O)cc4c(c3OC1CO2)C=CC(C)(C)O4` (stereo not drawn) [alpha-TOXICAROL (dl)], the “dopaminergic neuron differentiation score” value was inactive: 0.

Take `O=C1/C(=C/c2cccs2)CCC/C1=C\c1cccs1`: the “dopaminergic neuron differentiation score” value was inactive: 0.

Turning to `CCOC(=O)NNc1nncc2ccccc12`, the “dopaminergic neuron differentiation score” value was inactive: 0.

Consider `C[C@H](CCC(=O)NCC(=O)O)[C@H]1CC[C@H]2[C@@H]3[C@H](O)C[C@@H]4C[C@H](O)CC[C@]4(C)[C@H]3C[C@H](O)[C@]12C`, for which the “dopaminergic neuron differentiation score” value was inactive: 0.

As to `CNCc1ccccc1`, the “dopaminergic neuron differentiation score” value is inactive: 0.

Regarding `CCN(CC)C(C)CN1c2ccccc2Sc2ccccc21` (stereo not drawn), the “dopaminergic neuron differentiation score” value is inactive: 0.

For the compound `CN(C)CCOC(c1ccc(Cl)cc1)c1ccccn1` (stereo not drawn), the “dopaminergic neuron differentiation score” value is inactive: 0.

In the case of `CCOC(=S)SSC(=S)OCC`, the “dopaminergic neuron differentiation score” value was inactive: 0.

`COc1cc(OC)c(C(C)=O)c(O)c1C`: the “dopaminergic neuron differentiation score” value was inactive: 1.

Take `CC(C)=CCc1c2c(c3occ(-c4ccc(O)c(O)c4)c(=O)c3c1O)C=CC(C)(C)O2`: the “dopaminergic neuron differentiation score” value is inactive: 0.

For the compound `COC1=C(OC)C(=O)C(C/C=C(\C)CC/C=C(\C)CC/C=C(\C)CC/C=C(/C)CC/C=C(\C)CC/C=C(\C)CC/C=C(\C)CC/C=C(\C)CC/C=C(\C)CCC=C(C)C)=C(C)C1=O`, the “dopaminergic neuron differentiation score” value is inactive: 0.

As for `COc1cccc2c1CCC1CC(=O)CC[C@]21C` (stereo partly drawn), the “dopaminergic neuron differentiation score” value was inactive: 0.

Turning to `NC(=O)c1cc[n+](CC2=C(C(=O)O)N3C(=O)[C@@H](NC(=O)[C@@H](c4ccccc4)S(=O)(=O)[O-])[C@H]3SC2)cc1`, the “dopaminergic neuron differentiation score” value is inactive: 0.

On to `CC(C(=O)O)[C@H]1CCC2C3CC=C4C[C@@H](O)CC[C@]4(C)C3CC[C@@]21C` (stereo partly drawn) [3beta-HYDROXY-23,24-BISNORCHOL-5-ENIC ACID], for which the “dopaminergic neuron differentiation score” value is inactive: 0.

Take `CCCCC(CC)COC(=O)c1ccccc1O` (stereo not drawn): the “dopaminergic neuron differentiation score” value is inactive: 0.

As to `C[C@H]1[C@H](NC(=O)/C(=N\OC(C)(C)C(=O)O)c2csc(N)n2)C(=O)N1S(=O)(=O)O`, the “dopaminergic neuron differentiation score” value was inactive: 0.

Staying with this experiment, now noted: library: Tocriscreen; 2 uM; 4 weeks; BDNF 10 ng/ml + GDNF 10 ng/ml.
`CN1CCN2c3ncccc3Cc3ccccc3C2C1` (stereo not drawn) [Mirtazepine]: the “dopaminergic neuron differentiation score” value was inactive: 0.

On to `CCOC(=O)C1=C(N)Oc2ccc(Br)cc2C1C(C#N)C(=O)OCC` (stereo not drawn), for which the “dopaminergic neuron differentiation score” value is active: 3.

Consider `CC(C)Oc1cccc(-n2c(CCc3c[nH]c4ccc(Br)cc34)nc3ccccc3c2=O)c1`, for which the “dopaminergic neuron differentiation score” value is inactive: 0.

As for `NCCCCCCCCCCNS(=O)(=O)c1cccc2c(Cl)cccc12` [A-7 hydrochloride], the “dopaminergic neuron differentiation score” value is inactive: 0.

(Values after the supplement of paper PMC4635364.)
